# The list shows a part of the results.
# The chains behind the UniProt entries cited, without tags or fusion partners. Where a name states a change or a piece, a line headed by the entry shows the natural chain unless it says otherwise.
# UniProt Q96DH6: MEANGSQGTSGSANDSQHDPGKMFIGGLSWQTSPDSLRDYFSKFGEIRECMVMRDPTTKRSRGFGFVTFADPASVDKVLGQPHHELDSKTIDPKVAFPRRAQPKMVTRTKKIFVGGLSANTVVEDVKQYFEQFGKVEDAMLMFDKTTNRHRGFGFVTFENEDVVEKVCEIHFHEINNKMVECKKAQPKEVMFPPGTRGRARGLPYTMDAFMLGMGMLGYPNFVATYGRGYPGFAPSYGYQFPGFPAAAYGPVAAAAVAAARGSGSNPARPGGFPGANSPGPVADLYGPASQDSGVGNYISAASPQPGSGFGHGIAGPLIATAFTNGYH
# UniProt Q99707: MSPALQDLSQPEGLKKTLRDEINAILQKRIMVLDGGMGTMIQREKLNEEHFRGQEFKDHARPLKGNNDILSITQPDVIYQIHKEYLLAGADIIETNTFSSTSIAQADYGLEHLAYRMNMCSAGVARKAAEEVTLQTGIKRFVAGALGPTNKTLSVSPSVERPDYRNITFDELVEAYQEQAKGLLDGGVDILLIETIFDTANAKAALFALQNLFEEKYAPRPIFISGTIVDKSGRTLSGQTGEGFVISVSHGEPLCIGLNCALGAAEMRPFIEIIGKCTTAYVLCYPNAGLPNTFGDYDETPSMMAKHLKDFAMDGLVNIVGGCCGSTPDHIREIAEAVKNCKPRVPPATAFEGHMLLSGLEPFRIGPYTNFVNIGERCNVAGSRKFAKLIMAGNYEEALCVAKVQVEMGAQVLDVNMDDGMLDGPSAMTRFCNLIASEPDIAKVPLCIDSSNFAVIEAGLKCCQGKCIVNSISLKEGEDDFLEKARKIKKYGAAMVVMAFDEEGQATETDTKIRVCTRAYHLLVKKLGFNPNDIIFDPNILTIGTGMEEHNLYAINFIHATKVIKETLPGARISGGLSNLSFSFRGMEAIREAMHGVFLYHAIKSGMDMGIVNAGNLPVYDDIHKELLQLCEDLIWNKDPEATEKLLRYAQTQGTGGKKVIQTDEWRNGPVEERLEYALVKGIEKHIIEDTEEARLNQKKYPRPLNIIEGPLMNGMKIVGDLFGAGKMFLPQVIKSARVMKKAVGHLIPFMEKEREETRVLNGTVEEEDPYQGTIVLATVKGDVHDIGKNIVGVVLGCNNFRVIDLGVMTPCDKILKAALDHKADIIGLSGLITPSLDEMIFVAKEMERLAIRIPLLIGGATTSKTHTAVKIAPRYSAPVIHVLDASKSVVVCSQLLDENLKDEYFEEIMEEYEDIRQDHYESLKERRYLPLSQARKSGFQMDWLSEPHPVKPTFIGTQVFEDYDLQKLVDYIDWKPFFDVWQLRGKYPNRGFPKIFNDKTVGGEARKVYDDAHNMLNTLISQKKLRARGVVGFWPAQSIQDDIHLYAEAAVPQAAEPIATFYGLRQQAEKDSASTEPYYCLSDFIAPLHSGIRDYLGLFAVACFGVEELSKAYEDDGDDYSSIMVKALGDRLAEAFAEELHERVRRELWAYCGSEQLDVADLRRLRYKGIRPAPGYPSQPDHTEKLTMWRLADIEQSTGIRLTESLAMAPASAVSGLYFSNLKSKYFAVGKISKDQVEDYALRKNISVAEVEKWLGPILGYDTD
# UniProt Q7Z406, whole entry, looked up: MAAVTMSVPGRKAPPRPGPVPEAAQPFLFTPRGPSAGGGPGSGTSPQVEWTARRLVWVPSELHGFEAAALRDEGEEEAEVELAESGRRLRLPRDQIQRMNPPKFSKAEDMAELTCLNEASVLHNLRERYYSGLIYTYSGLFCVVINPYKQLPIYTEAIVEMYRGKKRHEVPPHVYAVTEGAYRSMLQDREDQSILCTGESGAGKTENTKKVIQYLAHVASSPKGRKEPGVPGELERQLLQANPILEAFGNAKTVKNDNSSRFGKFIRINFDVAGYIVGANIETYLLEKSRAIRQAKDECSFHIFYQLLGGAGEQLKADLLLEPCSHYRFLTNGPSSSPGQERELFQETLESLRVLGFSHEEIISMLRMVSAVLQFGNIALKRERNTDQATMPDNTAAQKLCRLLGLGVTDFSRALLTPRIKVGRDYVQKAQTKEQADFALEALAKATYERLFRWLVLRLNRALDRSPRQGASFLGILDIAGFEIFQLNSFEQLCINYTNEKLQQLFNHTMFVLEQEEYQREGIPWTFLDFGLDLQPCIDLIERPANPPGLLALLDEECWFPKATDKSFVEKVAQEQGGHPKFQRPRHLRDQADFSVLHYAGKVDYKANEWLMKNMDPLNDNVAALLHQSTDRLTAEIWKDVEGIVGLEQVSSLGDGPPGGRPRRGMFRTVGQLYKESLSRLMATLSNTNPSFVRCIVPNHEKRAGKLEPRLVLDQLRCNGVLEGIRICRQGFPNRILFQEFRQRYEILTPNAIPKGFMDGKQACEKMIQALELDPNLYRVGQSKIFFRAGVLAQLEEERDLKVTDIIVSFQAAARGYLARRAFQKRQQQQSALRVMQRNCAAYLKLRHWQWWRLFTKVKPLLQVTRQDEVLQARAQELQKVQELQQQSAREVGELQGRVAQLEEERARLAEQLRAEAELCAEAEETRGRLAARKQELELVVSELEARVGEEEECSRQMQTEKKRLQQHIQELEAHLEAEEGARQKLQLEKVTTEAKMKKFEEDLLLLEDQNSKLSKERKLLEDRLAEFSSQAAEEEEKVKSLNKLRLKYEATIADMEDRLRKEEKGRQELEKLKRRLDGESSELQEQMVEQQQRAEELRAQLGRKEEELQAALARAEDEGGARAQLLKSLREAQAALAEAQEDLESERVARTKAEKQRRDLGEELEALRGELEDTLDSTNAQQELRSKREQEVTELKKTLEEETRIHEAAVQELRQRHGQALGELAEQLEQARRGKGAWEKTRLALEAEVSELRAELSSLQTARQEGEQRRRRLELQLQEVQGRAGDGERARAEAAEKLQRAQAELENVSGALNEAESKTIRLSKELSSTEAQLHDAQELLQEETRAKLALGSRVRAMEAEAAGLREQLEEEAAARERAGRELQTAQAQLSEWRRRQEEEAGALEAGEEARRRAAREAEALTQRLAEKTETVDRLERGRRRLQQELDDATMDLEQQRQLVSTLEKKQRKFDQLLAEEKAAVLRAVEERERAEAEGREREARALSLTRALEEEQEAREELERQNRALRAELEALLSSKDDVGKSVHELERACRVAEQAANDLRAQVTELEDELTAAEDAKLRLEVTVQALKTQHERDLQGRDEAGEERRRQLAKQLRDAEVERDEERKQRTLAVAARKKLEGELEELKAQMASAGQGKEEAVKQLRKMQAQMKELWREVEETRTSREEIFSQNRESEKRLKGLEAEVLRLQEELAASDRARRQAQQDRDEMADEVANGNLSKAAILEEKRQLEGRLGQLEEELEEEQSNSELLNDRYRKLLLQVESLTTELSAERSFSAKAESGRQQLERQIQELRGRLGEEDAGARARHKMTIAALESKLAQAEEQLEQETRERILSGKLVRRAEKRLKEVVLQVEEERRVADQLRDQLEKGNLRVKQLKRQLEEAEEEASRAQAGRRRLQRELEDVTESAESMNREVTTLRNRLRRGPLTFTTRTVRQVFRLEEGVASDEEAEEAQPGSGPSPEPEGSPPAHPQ
# UniProt O14950, whole entry, looked up: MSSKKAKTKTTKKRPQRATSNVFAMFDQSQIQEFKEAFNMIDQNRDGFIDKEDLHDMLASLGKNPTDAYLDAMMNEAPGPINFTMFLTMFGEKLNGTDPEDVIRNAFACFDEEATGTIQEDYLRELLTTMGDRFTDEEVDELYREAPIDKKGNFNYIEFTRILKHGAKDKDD
# UniProt Q765P7: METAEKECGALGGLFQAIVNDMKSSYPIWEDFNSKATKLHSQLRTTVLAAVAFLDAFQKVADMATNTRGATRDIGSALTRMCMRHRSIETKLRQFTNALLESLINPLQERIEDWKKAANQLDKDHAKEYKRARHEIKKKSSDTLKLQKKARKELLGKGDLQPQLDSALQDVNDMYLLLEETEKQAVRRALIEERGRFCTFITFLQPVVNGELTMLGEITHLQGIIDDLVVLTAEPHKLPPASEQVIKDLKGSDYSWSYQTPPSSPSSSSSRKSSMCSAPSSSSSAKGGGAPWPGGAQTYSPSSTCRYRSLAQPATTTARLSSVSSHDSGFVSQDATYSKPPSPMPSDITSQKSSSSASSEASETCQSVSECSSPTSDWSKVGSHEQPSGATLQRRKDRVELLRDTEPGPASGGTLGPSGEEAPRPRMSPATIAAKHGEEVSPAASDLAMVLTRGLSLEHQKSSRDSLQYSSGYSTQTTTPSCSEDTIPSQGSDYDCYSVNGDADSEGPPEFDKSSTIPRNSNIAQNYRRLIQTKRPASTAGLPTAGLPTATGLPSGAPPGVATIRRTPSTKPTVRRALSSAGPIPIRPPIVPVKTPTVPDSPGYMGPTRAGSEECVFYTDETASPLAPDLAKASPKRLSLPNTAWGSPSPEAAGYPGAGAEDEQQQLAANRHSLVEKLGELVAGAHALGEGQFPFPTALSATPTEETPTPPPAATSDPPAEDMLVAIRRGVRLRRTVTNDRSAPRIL
# UniProt P84157: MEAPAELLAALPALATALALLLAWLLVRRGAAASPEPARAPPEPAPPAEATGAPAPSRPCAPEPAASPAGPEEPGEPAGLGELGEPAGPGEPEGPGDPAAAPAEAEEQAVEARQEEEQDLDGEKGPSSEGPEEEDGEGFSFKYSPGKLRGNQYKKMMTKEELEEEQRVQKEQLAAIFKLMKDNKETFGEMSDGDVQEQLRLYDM
# UniProt P03915, whole entry, looked up: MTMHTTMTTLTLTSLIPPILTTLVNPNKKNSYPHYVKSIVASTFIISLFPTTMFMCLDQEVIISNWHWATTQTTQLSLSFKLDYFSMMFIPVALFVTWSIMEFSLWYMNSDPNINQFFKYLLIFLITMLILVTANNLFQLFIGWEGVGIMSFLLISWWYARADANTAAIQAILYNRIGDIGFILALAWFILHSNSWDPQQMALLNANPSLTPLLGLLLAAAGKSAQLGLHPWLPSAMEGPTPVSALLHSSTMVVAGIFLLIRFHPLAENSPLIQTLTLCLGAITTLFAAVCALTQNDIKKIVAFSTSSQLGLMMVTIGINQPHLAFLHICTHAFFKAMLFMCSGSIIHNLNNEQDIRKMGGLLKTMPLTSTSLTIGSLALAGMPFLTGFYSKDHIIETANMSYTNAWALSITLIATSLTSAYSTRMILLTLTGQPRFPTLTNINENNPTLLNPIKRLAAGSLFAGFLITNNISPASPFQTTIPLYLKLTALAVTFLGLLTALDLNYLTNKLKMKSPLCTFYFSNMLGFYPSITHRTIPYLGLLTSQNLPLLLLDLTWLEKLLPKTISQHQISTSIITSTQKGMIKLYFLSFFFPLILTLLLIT
# Key:
# Assay in all cases: log2 fold change, soluble protein after heating vs DMSO (PISA); higher = thermal stabilisation; K562 cells, 10 uM, 30 min; active = over 0.2 and 3.5 SD of the protein, either way, in both replicates (recomputed)
# bafetinib = compound: Cc1ccc(NC(=O)c2ccc(CN3CC[C@H](N(C)C)C3)c(C(F)(F)F)c2)cc1Nc1nccc(-c2cncnc2)n1 [bafetinib]
# Outline: (§1)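 Values are thermal stability changes relative to control samples and are taken from duplicates. They are stated as log2 fold changes. Before quantification by TMTpro 16plex LC-MS/MS with equalised channel sums, K562 cells at 2×10^6 cells/mL were treated with 10 μM compound for 30 min, heated in aliquots for 3 min across 48°C-58°C, pooled, extracted in PBS with 0.5% NP-40 at 4°C, and centrifuged at 21,000xg for 90 min to give the soluble supernatant.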
# [1] = compound: Cc1cccc(CC(=O)N2CCc3c2ccc(-c2cn(C)c4ncnc(N)c24)c3F)n1
# Outline: as §1
# nilotinib = compound: Cc1cn(-c2cc(NC(=O)c3ccc(C)c(Nc4nccc(-c5cccnc5)n4)c3)cc(C(F)(F)F)c2)cn1 [nilotinib]
# Outline: as §1
# [2] = compound: Cc1nc(Nc2n[nH]c3c2CN(C(=O)N[C@H](CN(C)C)c2ccccc2)C3(C)C)c2sccc2n1
# Outline: as §1
# dasatinib = compound: Cc1nc(Nc2ncc(C(=O)Nc3c(C)cccc3Cl)s2)cc(N2CCN(CCO)CC2)n1 [dasatinib]
# Outline: as §1
# [3] = compound: Cc1ncc(-c2ccnc(Nc3ccc(S(C)(=O)=O)cc3)n2)n1C(C)C
# Outline: as §1
# [4] = compound: Cn1cc(-c2ccc3c(c2)CCN3C(=O)Cc2cccc(C(F)(F)F)c2)c2c(N)ncnc21
# Outline: as §1
# [5] = compound: Cn1cc(-c2ccc3nnc(C(F)(F)c4ccc5ncccc5c4)n3n2)cn1
# Outline: as §1
# tipifarnib = compound: Cn1cncc1[C@@](N)(c1ccc(Cl)cc1)c1ccc2c(c1)c(-c1cccc(Cl)c1)cc(=O)n2C [tipifarnib]
# Outline: as §1
# mubritinib = compound: FC(F)(F)c1ccc(/C=C/c2nc(COc3ccc(CCCCn4ccnn4)cc3)co2)cc1 [mubritinib]
# Outline: as §1
# [6] = compound: NC(=O)Nc1cc(-c2cccc(F)c2)sc1C(=O)N[C@H]1CCCNC1
# Outline: as §1
# [7] = compound: NC(=O)c1cnc(N[C@@H]2CCCC[C@@H]2N)nc1Nc1cccc(-n2nccn2)c1
# Outline: as §1
# [8] = compound: NC1(c2ccc(-c3nc4ccn5c(=O)[nH]nc5c4cc3-c3ccccc3)cc2)CCC1
# Outline: as §1
# [9] = compound: NCC(=O)Nc1ccc(-n2nc(C(F)(F)F)cc2-c2ccc3c(ccc4ccccc43)c2)cc1
# Outline: as §1
# entinostat = compound: Nc1ccccc1NC(=O)c1ccc(CNC(=O)OCc2cccnc2)cc1 [entinostat]
# Outline: as §1
# vorinostat = compound: O=C(CCCCCCC(=O)Nc1ccccc1)NO [vorinostat]
# Outline: as §1
# citarinostat = compound: O=C(CCCCCCNC(=O)c1cnc(N(c2ccccc2)c2ccccc2Cl)nc1)NO [citarinostat]
# Outline: as §1
# silmitasertib = compound: O=C(O)c1ccc2c(c1)nc(Nc1cccc(Cl)c1)c1ccncc12 [silmitasertib]
# Outline: as §1
# [10] = compound: O=C1NC(=O)C(c2cnc3ccccn23)=C1c1cn2c3c(cc(F)cc13)CN(C(=O)N1CCCCC1)CC2
# Outline: as §1
# [11] = compound: c1cc(OCCN2CCCCC2)cc(-c2n[nH]c3ccc(-c4nnc[nH]4)cc23)c1
# Outline: as §1
Target,log2 fold change (bafetinib),log2 fold change [1],log2 fold change (nilotinib),log2 fold change [2],log2 fold change (dasatinib),log2 fold change [3],log2 fold change [4],log2 fold change [5],log2 fold change (tipifarnib),log2 fold change (mubritinib),log2 fold change [6],log2 fold change [7],log2 fold change [8],log2 fold change [9],log2 fold change (entinostat),log2 fold change (vorinostat),log2 fold change (citarinostat),log2 fold change (silmitasertib),log2 fold change [10],log2 fold change [11]
MSI2 (UniProt Q96DH6),inactive: -0.072,inactive: 0.046,inactive: 0.002,inactive: -0.005,inactive: -0.018,inactive: 0.061,inactive: -0.154,inactive: 0.02,inactive: 0.057,inactive: -0.063,inactive: 0.012,inactive: -0.003,inactive: 0.063,inactive: 0.01,inactive: 0.042,inactive: 0.002,inactive: 0.037,inactive: 0.066,inactive: 0.128,inactive: -0.134
MTR (UniProt Q99707),inactive: -0.003,inactive: -0.002,inactive: -0.046,inactive: -0.107,inactive: -0.025,inactive: 0.043,inactive: -0.036,inactive: -0.024,inactive: -0.029,inactive: -0.064,inactive: -0.015,inactive: -0.068,inactive: -0.087,inactive: -0.032,inactive: 0.08,inactive: 0.076,inactive: -0.004,inactive: 0.065,inactive: 0.099,inactive: -0.029
MRPS23 (UniProt Q9Y3D9),inactive: 0.151,inactive: 0.184,inactive: -0.145,inactive: 0.068,inactive: -0.107,inactive: -0.038,inactive: -0.036,inactive: 0.021,inactive: -0.011,inactive: 0.195,inactive: 0.03,inactive: 0.037,inactive: -0.008,inactive: 0.057,inactive: 0.013,inactive: 0.045,inactive: 0.016,inactive: -0.072,inactive: -0.028,inactive: -0.081
MYH14 isoform 2 (UniProt Q7Z406),inactive: -0.059,inactive: 0.03,inactive: -0.019,inactive: 0.036,inactive: -0.007,inactive: -0.008,inactive: -0.003,inactive: 0.021,inactive: -0.053,inactive: 0.066,inactive: -0.052,inactive: 0.057,inactive: -0.071,inactive: -0.012,inactive: 0.009,inactive: 0.022,inactive: 0.01,inactive: 0.046,inactive: -0.072,inactive: 0.004
MYL12B (UniProt O14950),inactive: -0.049,inactive: 0.042,inactive: 0.031,inactive: 0.001,inactive: 0.001,inactive: -0.002,inactive: 0.117,inactive: -0.046,inactive: -0.038,inactive: 0.064,inactive: 0.09,inactive: 0.084,inactive: -0.013,inactive: 0.055,inactive: 0.029,inactive: -0.004,inactive: 0.045,inactive: -0.037,inactive: -0.042,inactive: 0.026
MTSS2 (UniProt Q765P7),inactive: -0.023,inactive: -0.036,inactive: 0.044,inactive: -0.058,inactive: -0.002,inactive: -0.132,inactive: 0.061,inactive: -0.023,inactive: 0.037,inactive: 0.105,inactive: 0.117,inactive: -0.036,inactive: -0.03,inactive: 0.001,inactive: -0.025,inactive: 0,inactive: -0.072,inactive: -0.019,inactive: -0.144,inactive: 0.102
MXRA7 (UniProt P84157),inactive: -0.074,inactive: -0.075,inactive: -0.02,inactive: -0.057,inactive: 0.042,inactive: 0.057,inactive: 0.03,inactive: -0.042,inactive: 0.018,inactive: 0.002,inactive: -0.097,inactive: 0.037,inactive: 0.037,active: -0.302,inactive: 0.008,inactive: 0.003,inactive: -0.006,inactive: 0.028,inactive: -0.013,inactive: 0.061
MT-ND5 (UniProt P03915),inactive: -0.014,inactive: -0.094,inactive: 0.008,inactive: 0.005,inactive: 0.086,inactive: -0.051,inactive: -0.017,inactive: 0.031,inactive: -0.046,inactive: -0.062,inactive: -0.068,inactive: 0.012,inactive: 0.038,inactive: -0.003,inactive: -0.056,inactive: 0.075,inactive: 0.053,inactive: 0.058,inactive: 0.015,inactive: -0.066

# — the supplement of paper PMC10849652
